## Results of single-concentration screens

The chains behind the UniProt entries cited, without tags or fusion partners.
UniProt I6X8D2, whole entry: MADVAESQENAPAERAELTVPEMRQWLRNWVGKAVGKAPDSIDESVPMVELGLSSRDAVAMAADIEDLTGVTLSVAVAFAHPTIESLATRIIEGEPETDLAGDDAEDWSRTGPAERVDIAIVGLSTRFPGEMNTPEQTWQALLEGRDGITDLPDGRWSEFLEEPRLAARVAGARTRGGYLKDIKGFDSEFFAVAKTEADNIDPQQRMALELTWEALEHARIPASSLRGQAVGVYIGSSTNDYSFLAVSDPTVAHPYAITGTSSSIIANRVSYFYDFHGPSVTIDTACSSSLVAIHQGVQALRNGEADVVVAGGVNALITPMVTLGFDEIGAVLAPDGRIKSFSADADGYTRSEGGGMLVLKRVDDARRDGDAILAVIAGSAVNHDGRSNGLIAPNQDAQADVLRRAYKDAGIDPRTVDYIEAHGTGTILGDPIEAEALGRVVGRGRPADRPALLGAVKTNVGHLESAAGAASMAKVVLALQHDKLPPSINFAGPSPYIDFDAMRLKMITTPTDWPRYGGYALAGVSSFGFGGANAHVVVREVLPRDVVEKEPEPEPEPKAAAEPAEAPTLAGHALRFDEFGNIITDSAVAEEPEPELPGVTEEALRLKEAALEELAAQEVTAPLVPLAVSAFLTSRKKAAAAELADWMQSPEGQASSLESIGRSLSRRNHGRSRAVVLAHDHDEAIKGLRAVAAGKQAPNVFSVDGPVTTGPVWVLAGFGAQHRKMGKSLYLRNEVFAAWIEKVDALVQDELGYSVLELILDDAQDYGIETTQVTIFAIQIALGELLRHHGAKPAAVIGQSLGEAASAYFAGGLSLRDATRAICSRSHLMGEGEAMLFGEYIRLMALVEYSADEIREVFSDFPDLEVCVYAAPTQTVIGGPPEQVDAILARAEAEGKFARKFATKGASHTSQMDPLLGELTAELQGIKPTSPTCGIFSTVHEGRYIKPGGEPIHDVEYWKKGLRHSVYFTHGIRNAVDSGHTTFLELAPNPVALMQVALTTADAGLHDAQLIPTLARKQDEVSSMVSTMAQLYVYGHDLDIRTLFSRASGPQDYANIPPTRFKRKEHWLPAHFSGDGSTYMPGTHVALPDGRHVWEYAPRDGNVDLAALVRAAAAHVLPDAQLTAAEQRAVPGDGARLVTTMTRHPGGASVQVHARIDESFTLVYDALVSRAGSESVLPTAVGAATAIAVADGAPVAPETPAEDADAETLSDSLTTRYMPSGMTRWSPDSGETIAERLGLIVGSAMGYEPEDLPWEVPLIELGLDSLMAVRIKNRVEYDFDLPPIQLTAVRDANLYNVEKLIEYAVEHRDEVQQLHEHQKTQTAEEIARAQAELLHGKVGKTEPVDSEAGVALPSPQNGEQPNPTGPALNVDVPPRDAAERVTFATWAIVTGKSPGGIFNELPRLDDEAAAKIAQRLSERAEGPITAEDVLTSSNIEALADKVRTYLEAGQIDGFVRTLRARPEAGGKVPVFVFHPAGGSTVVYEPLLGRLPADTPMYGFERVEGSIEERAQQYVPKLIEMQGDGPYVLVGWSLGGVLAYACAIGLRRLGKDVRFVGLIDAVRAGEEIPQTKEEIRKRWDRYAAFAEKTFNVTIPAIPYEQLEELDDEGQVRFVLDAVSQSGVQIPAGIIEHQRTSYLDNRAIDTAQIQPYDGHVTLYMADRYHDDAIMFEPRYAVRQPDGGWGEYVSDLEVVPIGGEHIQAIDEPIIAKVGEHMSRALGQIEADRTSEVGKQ

Measurements from “University of Dundee, Small-Polar-MMV Screening Library” (2021), ChEMBL document CHEMBL3988442.

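Polyketide synthase Pks13, Mycobacterium tuberculosis (UniProt I6X8D2). Enzyme assay of the thioesterase domain of polyketide synthase 13; the read-out is not stated. Compounds at 30 µM. The record gives no direction; the compounds picked for IC50 retests had high values, so higher reads as stronger inhibition. Size under these conditions: about 67,000 compounds, about 300 of them at 50% or above in at least one test.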

The filed quantity is “Percent Effect” (%). The record does not define 0% and 100%; most values in the screen are far below 50% and negative numbers occur (in some assays of this library far below -100). The compounds are a random part of those screened.

structure: Cc1ccccc1-c1cncc(C2CCN(S(=O)(=O)N(C)C)CC2)n1
Percent Effect: 4.274%

structure: O=C(NCc1cncc2c1CCN(C1CCOC1)C2)c1ccco1 (stereo not drawn)
Percent Effect: 0.1073%

structure: Cc1csc(CCNC(=O)Nc2cc(C(F)(F)F)c[nH]c2=O)n1
Percent Effect: -28.97%

structure: CSc1ccc(OCCN2CCNC(=O)CC2)cc1
Percent Effect: -3.873%

structure: CC(C)c1nn(C)c(Cl)c1CNCC(O)c1cccc(F)c1 (stereo not drawn)
Percent Effect: -16.25%

structure: O=C(N1CCCC1)N1CCC2(CC1)CN(c1cccnc1)C(=O)CO2
Percent Effect: -5.744%

structure: CCN(C)CC1CCN(S(=O)(=O)c2cc(C)c(F)cc2Cl)C1 (stereo not drawn)
Percent Effect: -8.083%

structure: Cc1nc(CN2CCc3ncnc(C4CC4)c3CC2)cs1
Percent Effect: -12.22%

structure: CCOCC1CN(S(=O)(=O)C2CC2)Cc2ncn(CC3CC3)c21 (stereo not drawn)
Percent Effect: -4.757%

structure: O=C(O)CC(NC(=O)c1ccccc1OC(F)F)c1cccs1 (stereo not drawn)
Percent Effect: -23.78%

structure: CN1CCO[C@@H]2CN(S(=O)(=O)c3cccs3)CC[C@@H]2C1
Percent Effect: -2.674%

structure: COCc1cccc(C(=O)N2CCCC2)c1
Percent Effect: -16.48%

structure: COc1ccccc1C(=O)N1CCOCC1c1c(C)n[nH]c1C (stereo not drawn)
Percent Effect: -9.009%

structure: CS(=O)(=O)N1CCN(c2ccc3ccc(C(=O)NC4CC4)cn23)CC1
Percent Effect: -11.04%

structure: Cc1cnc(C(=O)NC(CN2CCCC2=O)c2ccccc2)cn1 (stereo not drawn)
Percent Effect: -3.938%

structure: CCCc1n[nH]c(C2CN(C(=O)Cn3ccccc3=O)CCO2)n1 (stereo not drawn)
Percent Effect: -14.41%

structure: CC(C)(C)c1ncc(CNc2ccn(CCc3ccncc3)n2)s1
Percent Effect: -49.22%

structure: O=C(CN1CCOC1=O)N1CCc2nnc(-c3ccccc3)n2CC1
Percent Effect: -25.38%

structure: COCCC1(CO)CCCN(Cc2ccc(F)c(C)c2)C1 (stereo not drawn)
Percent Effect: -5.912%

structure: COc1ccc2c(c1)CCCN(C(=O)NCC1CCCO1)C2 (stereo not drawn)
Percent Effect: 1.126%

structure: CCOCCN1CCn2c(C)nnc2C1
Percent Effect: -0.7582%

structure: CN1C(Cn2cccn2)C[C@@H]2CN(C(=O)c3cccc(C#N)c3)CC[C@@H]21 (stereo partly drawn)
Percent Effect: -12.64%

structure: N#Cc1ccc(CN2CCN(c3ccncc3Cl)CC2=O)cc1
Percent Effect: -27.24%

structure: CS(=O)(=O)NC1CCN(C(=O)NCCNc2ccccn2)CC1
Percent Effect: -5.74%

structure: COc1ccc(CNC(=O)NC(C)(C(=O)O)c2ccco2)cc1F (stereo not drawn)
Percent Effect: -24.31%

structure: CC(C)(C#N)C(=O)N1CCCC(c2cc(C(F)(F)F)[nH]n2)C1 (stereo not drawn)
Percent Effect: -15.92%

structure: O=C(c1ccccc1)N1C[C@@H]2CC[C@H](C1)N(S(=O)(=O)c1cccnc1)C2
Percent Effect: -34.45%

structure: Cc1ccc(C(=O)NS(C)(=O)=O)cc1S(C)(=O)=O
Percent Effect: -35.33%

structure: CSc1nccc(N2CCN(C)C3(CCC(=O)N(CC4CC4)CC3)C2)n1 (stereo not drawn)
Percent Effect: -38.15%

structure: O=C1CCN(C(=O)c2ncoc2-c2ccco2)c2ncccc2N1
Percent Effect: -7.881%

structure: Cc1cnn(CCC(=O)N2CCOC(c3nc(C(C)(C)C)n[nH]3)C2)c1 (stereo not drawn)
Percent Effect: -12.48%

structure: O=C1COC2(CCN(Cc3ccoc3)CC2)CN1
Percent Effect: 2.258%

structure: O=C(c1ccc2c(c1)OCCO2)N1CCCC(n2ccnc2)C1 (stereo not drawn)
Percent Effect: -30.14%

structure: COc1ccnc(CN2CCC=C(C(C)NC(C)=O)C2)c1OC (stereo not drawn)
Percent Effect: -17.11%

structure: CO[C@H]1CN(C)S(=O)(=O)[C@@]12CCN(Cc1ccccc1)C2
Percent Effect: -6.813%

structure: O=C(C1=CCCC1)N1CCC[C@]2(C[C@@H](Oc3ncccc3F)CO2)C1
Percent Effect: 41.93%

structure: Cc1ccc(CN2CCc3c(CN4CCCC4)n[nH]c3C2)s1
Percent Effect: -31.86%

structure: O=c1cc(N2CCNCC2)cnn1CCc1ccc(F)cc1
Percent Effect: 12.95%

structure: Cn1ncc2c(NCCn3cccc3)nc(C3CCCC3)nc21
Percent Effect: -30.74%

structure: CCC(c1nc(CC(C)C)nn1-c1ccccn1)n1cccn1 (stereo not drawn)
Percent Effect: -32.91%

structure: CC(C)COc1cncc(NCc2nnc3ccccn23)n1
Percent Effect: -27.27%

structure: Cc1cc(CN2CCCn3nc(CCC(=O)O)cc3C2)ccc1F
Percent Effect: 11.29%

structure: COc1ccc(CN2CCC3(CC2)C(C(=O)O)CC(=O)N3C)cc1Cl (stereo not drawn)
Percent Effect: 8.477%

structure: COc1ccc(C(=O)Cn2cnnc2[S+](C)[O-])cc1Cl (stereo not drawn)
Percent Effect: -30.9%

For reference, 4 entries once more:

- CS(=O)(=O)NC1CCN(C(=O)NCCNc2ccccn2)CC1 | -5.74%
- COc1ccccc1C(=O)N1CCOCC1c1c(C)n[nH]c1C (stereo not drawn) | -9.009%
- O=C(C1=CCCC1)N1CCC[C@]2(C[C@@H](Oc3ncccc3F)CO2)C1 | 41.93%
- COCCC1(CO)CCCN(Cc2ccc(F)c(C)c2)C1 (stereo not drawn) | -5.912%